In article PMC5493424 one finds binding data, which are given here for two molecules.

Protein sequences, listed by entry. Tags and fused reporters are not part of them.
UniProt P01100: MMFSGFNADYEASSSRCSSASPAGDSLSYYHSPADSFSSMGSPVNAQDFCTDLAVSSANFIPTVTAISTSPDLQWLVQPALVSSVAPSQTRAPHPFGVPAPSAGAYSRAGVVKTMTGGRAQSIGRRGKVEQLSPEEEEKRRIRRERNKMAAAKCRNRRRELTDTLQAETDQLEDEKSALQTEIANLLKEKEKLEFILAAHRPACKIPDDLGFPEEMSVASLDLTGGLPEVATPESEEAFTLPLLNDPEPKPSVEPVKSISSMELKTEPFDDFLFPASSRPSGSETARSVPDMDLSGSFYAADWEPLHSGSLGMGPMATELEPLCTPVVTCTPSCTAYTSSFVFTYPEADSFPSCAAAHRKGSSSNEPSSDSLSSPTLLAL

The test addresses c-Fos (human (endogenous in MG63)) (UniProt P01100). In words: co-IP; MG63 cell lysate incubated with anti-c-Fos antibody (Cell Signaling) and protein A agarose beads (Co-IP Kit, Thermo Scientific) with protease inhibitor cocktail; input, Co-IP and flow fractions blotted for Wnt2 and Fzd9.

Results are given in words; binding and its absence hold for the method and conditions named. Binding seen in cells or lysates may run through a third protein.

B1: Frizzled-9 (receptor, UniProt O00144 23-591)
chain: LEIGRFDPERGRGAAPCQAVEIPMCRGIGYNLTRMPNLLGHTSQGEAAAELAEFAPLVQYGCHSHLRFFLCSLYAPMCTDQVSTPIPACRPMCEQARLRCAPIMEQFNFGWPDSLDCARLPTRNDPHALCMEAPENATAGPAEPHKGLGMLPVAPRPARPPGDLGPGAGGSGTCENPEKFQYVEKSRSCAPRCGPGVEVFWSRRDKDFALVWMAVWSALCFFSTAFTVLTFLLEPHRFQYPERPIIFLSMCYNVYSLAFLIRAVAGAQSVACDQEAGALYVIQEGLENTGCTLVFLLLYYFGMASSLWWVVLTLTWFLAAGKKWGHEAIEAHGSYFHMAAWGLPALKTIVILTLRKVAGDELTGLCYVASTDAAALTGFVLVPLSGYLVLGSSFLLTGFVALFHIRKIMKTGGTNTEKLEKLMVKIGVFSILYTVPATCVIVCYVYERLNMDFWRLRATEQPCAAAAGPGGRRDCSLPGGSVPTVAVFMLKIFMSLVVGITSGVWVWSSKTFQTWQSLCYRKIAAGRARAKACRAPGSYGRGTHCHYKAPTVVLHMTKTDPSLENPTHL
Take B1: the binding result is given as “no binding”.

B2: Wnt2 (ligand, UniProt P09544 26-360)
chain: SWWYMRATGGSSRVMCDNVPGLVSSQRQLCHRHPDVMRAISQGVAEWTAECQHQFRQHRWNCNTLDRDHSLFGRVLLRSSRESAFVYAISSAGVVFAITRACSQGEVKSCSCDPKKMGSAKDSKGIFDWGGCSDNIDYGIKFARAFVDAKERKGKDARALMNLHNNRAGRKAVKRFLKQECKCHGVSGSCTLRTCWLAMADFRKTGDYLWRKYNGAIQVVMNQDGTGFTVANERFKKPTKNDLVYFENSPDYCIRDREAGSLGTAGRVCNLTSRGMDSCEVMCCGRGYDTSHVTRMTKCGCKFHWCCAVRCQDCLEALDVHTCKAPKNADWTTAT
Regarding B2, the binding result was “no binding”.
